# Measured values as given in PubChem BioAssay AID2417 (National Center for Advancing Translational Sciences (NCATS), 2010).
# Screen size: about 140,000 compounds; about 4,300 (3.1%) were called active. The inconclusive results got no clear call from the source; some entries with a clear call stand among them for comparison.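 The calls were made as follows: active = readout at or below -70, meaning at least 70% loss of cells showing the perinucleolar compartment, a nuclear body marking cancer cells; inconclusive = readout between -30 and a set limit; inactive = the rest.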
# Test: High Content Assay for Compounds that inhibit the Assembly of the Perinucleolar Compartment;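 also: plate controls were DMSO wells for no effect and camptothecin positive control wells for full effect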
# Conditions: PC3M PTB-GFP, PNC prevalence imaging, 16 h; at 10 µM; stronger effect = lower value
# Procedure, shortened: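 Read-out is percentage of cells bearing a perinucleolar compartment, from automated 20x imaging of fixed, Hoechst-stained PC3M PTB-GFP cells. Cells were seeded 4 h, then exposed 16 h to compound (23 nl of library stock) in duplicate plates.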
row,SMILES,"activity change (PNC), negative = inhibition"
1,Cc1cccc(-c2c3c(=O)n(C)c(=O)n(C)c3c3cccnn23)c1,inactive: -27.5%
2,COc1ccc(C)cc1S(=O)(=O)N1c2ccccc2CC1C (centres undefined),inactive: 48.6%
3,O=C(O)c1cccc(Cn2cccn2)c1,inconclusive: -30.7%
4,CC1Cc2cc(C3(O)C(=O)c4ccccc4C3=O)ccc2N1 (centres undefined),inconclusive: -41.8%
5,CCOc1cc(/C=N/Nc2ccccc2Cl)ccc1OCC(=O)O,inactive: 39%
6,CCCCCCC1CC(CCc2nc(=S)[nH][nH]2)C(=O)O1 (centres undefined),inconclusive: -39.1%
7,O=C(Cn1c(=O)n(Cc2ccco2)c(=O)c2cc(Cl)ccc21)NCC1CCCO1 (centres undefined),inconclusive: -54.2%
8,COc1ccc(OC)c(NC(=O)Cc2coc3ccc(C)cc23)c1,inactive: 36.4%
9,Cc1ccccc1Nc1nnc(SCC2CCCCO2)s1 (centres undefined),inconclusive: -49.5%
10,COc1ccc(C(=O)NC(=S)NCc2ccccc2)cc1,inconclusive: -40.5%
11,CC1=NN(c2ccccc2)C(=O)/C1=C\c1ccc(Oc2ccc([N+](=O)[O-])cc2[N+](=O)[O-])cc1,inconclusive: -73.7%
12,Cc1ccc(OC(=O)c2cc3ccccc3o2)cc1,inconclusive: -39.9%
13,C=CCn1c(SCC(=O)/C(C#N)=C(\C)N)nc2sc(CC)cc2c1=O,inconclusive: -52.2%
14,CCCCOc1ccc(CSC2=NCCN2)cc1[N+](=O)[O-],inconclusive: -61.4%
15,O=C(COc1ccc2ccccc2c1Br)Nn1cnnc1,inconclusive: -44.9%
16,CC(=O)NC(CC(=O)NC1CCCCC1)c1ccccc1 (centres undefined),inconclusive: -71.3%
17,Cc1cccc(C)c1NC(=O)N1CCC(c2nc3ccccc3o2)CC1,inactive: -12.8%
18,COc1ccc(OC)c(NC(=O)c2cnn(-c3ccccc3Cl)c2NC(=O)c2ccco2)c1,inconclusive: -32.4%
19,COc1ccc(/C=C/C(=O)OCC(=O)Nc2ccc(Cl)c(S(=O)(=O)N(C)C)c2)cc1OC,active: -110%
20,COCCNC(=O)C(c1ccc(C)o1)N(C(=O)c1snc(C(N)=O)c1N)c1cccc(C)c1 (centres undefined),inconclusive: -35.9%
21,CCOc1ccccc1N1CCN(C(=O)c2ccc3[nH]c4c(c3c2)CCCC4)CC1,inactive: 17.5%
22,Cc1csc(SCC(=O)Nc2ccc(Cl)cn2)n1,inconclusive: -46.9%
23,O=C(CCl)Oc1ccc2occ(C(=O)c3cccs3)c2c1,inactive: 18.2%

# Structural class: the entries above with a COOH group (two)
row,SMILES,"activity change (PNC), negative = inhibition"
3,O=C(O)c1cccc(Cn2cccn2)c1,inconclusive: -30.7%
5,CCOc1cc(/C=N/Nc2ccccc2Cl)ccc1OCC(=O)O,inactive: 39%

# More results follow.

row,SMILES,"activity change (PNC), negative = inhibition"
1,COc1ccc(-n2c(Cc3cc(=O)[nH]c(=O)[nH]3)nnc2SCC(=O)NC2CCCC2)cc1,inconclusive: -35.1%
2,Cc1ccc([N+](=O)[O-])cc1NC(=S)NC(=O)CC(C)(C)C,inactive: 2.53%
3,CCCN1Cc2cccc(C(=O)Nc3ccc4c(c3)OCCO4)c2C1=O,active: -106%
4,Cc1ccc(Cn2c(C(=O)NCCCN3CCOCC3)cc3sccc32)cc1,inconclusive: -62.5%
5,Nc1ccc(Br)cc1C(=O)O,inconclusive: -30%
6,N=C1CCCN1CC(=O)c1ccc(Cl)cc1,inconclusive: -33.5%
7,N=C1/C(=C/c2cccn2-c2cccc([N+](=O)[O-])c2)C(=O)N=C2SC=CN12,inconclusive: -34.2%
8,CC(=O)[C@H]1[C@@H]2C(=O)N(c3cccc(Cl)c3)C(=O)[C@@H]2[C@H]2c3ccccc3C=CN21,inactive: 76.6%
9,CCCN(CCC)c1ncnc2c1cnn2-c1ccc(OC)cc1,inconclusive: -30.9%
10,O=C(c1cccc(S(=O)(=O)N2CCOCC2)c1)N1CCN(c2ccc(F)cc2)CC1,inconclusive: -47.5%
11,CCC(C)NC(=O)C1CCC(=O)N1Cc1ccc(C)cc1 (centres undefined),inconclusive: -62.3%
12,Cc1scc(C(=O)NCc2ccco2)c1-c1ccccc1,inconclusive: -59.2%
13,O=C(CCN1C(=O)c2ccccc2C1=O)Nc1ccc(S(=O)(=O)NC2=NCCCCC2)cc1,inconclusive: -52.9%
14,CN1CCN(C2=Cc3ccccc3Sc3cc(F)c(F)cc32)CC1,active: -87.6%
15,COc1cccc(/C=N/NC(=O)CC(=O)NCCc2ccc(OC)c(OC)c2)c1,inactive: -13.9%
16,CCn1c(SCC(=O)Nc2nc(-c3ccc(C)cc3)cs2)nnc1-c1ccccc1O,inconclusive: -39.6%
17,N#Cc1c2n(c3c(=O)n(CC(=O)c4ccc([N+](=O)[O-])cc4)cnc13)CCCCC2,inactive: 33.1%
18,CCOC(=O)CSc1nnc(CNC(=O)c2ccco2)n1C,inconclusive: -40.4%
19,Cc1cc(C)cc(C(=O)N2CCC(C(N)=O)CC2)c1,inconclusive: -48.8%
20,Cc1[nH]c2ccccc2c1/C=C(\C#N)C(=O)NC(C)c1ccccc1 (centres undefined),inconclusive: -35.4%
21,O=C(Nc1cc(C(F)(F)F)ccc1N1CCOCC1)c1c(F)c(F)c(F)c(F)c1F,inconclusive: -43.3%
22,O=C(c1ccccc1)N1CCN(C2c3cccc4cccc(c34)C2NS(=O)(=O)c2ccccc2)CC1 (centres undefined),inactive: -19.3%
23,COc1ccccc1NS(=O)(=O)c1cc(NC(=O)c2ccc(Cl)nc2)ccc1Cl,inactive: -6.99%

row,SMILES,"activity change (PNC), negative = inhibition"
1,CC(C)NC(=O)Nc1cccs1,active: -100%
2,CCCCNC(=O)c1cc2c(=O)n3cccc(C)c3nc2n1C,inactive: -20.3%
3,COc1cc(C(=O)Nc2ccc(S(=O)(=O)N3CCc4ccccc43)cc2)cc(OC)c1OC,inactive: 34.1%
4,COc1ccccc1OCCn1cc(/C=C(\C#N)C(=O)NCc2cccs2)c2ccccc21,inactive: 55.2%
5,CC(C)(C)NC(=O)COC(=O)c1ccccc1OCC(=O)Nc1ccc(Br)cc1,inconclusive: -32.9%
6,Cc1oc(-c2ccc(Cl)cc2)nc1CN1CCCC(C(=O)NCc2ccco2)C1 (centres undefined),inconclusive: -74%
7,C/C(Cn1nnc([N+](=O)[O-])n1)=N\NC(=O)c1ccc(C)cc1,active: -109%
8,CCc1nnc(NC(=O)CSc2nc3ccccc3c(=O)n2CCCOC)s1,inconclusive: -77.1%
9,COC(=O)N/N=C/c1cc(Cl)cc(Cl)c1OCc1ccc(F)cc1,inactive: -26.1%
10,CCOC(=O)c1cnc(SCc2cccc(C)c2)nc1N,inconclusive: -45.8%
11,O=C(CNC(=O)C(c1ccccc1)c1ccccc1)N/N=C/c1ccc(O)c([N+](=O)[O-])c1,inactive: 64.2%
12,CCCCn1c(NC(=O)CC)c(C#N)c2nc3ccccc3nc21,inconclusive: -52.1%
13,COc1cc(CN(C)Cc2ccccc2)cc(OC)c1O,inconclusive: -32.9%
14,Cc1cc(N2CCN(c3nnnn3-c3ccccc3)CC2)n2ncnc2n1,inconclusive: -40.4%
15,COc1ccc2[nH]c3c(=O)n(CCCCC(=O)N4CCCC4)c(=S)[nH]c3c2c1,inconclusive: -46.9%
16,O=C1C2CCCN2C(=O)N1CCCN1CCN(c2cccc(Cl)c2)CC1 (centres undefined),inconclusive: -33.2%
17,Cc1ccc(C(=O)CSc2nc(-c3ccccc3)ccc2C#N)cc1,inactive: -4.41%
18,Cc1nc(NCCc2ccccc2)c2oc3ccccc3c2n1,inactive: -3.93%
19,Cc1noc(C)c1COc1ccc(C(=O)OCc2nnc(-c3ccc(Cl)cc3)o2)cc1,active: -83.6%
20,FC(F)Oc1ccc(NC(=S)NCc2ccccc2)cc1Cl,inactive: -0.964%
21,CC(C)OCCCNC(=O)c1c(N)n(/N=C/c2ccccn2)c2nc3ccccc3nc12,inconclusive: -39.5%
22,Nc1ccc(C(=O)c2cccs2)cc1,inactive: 12.5%
23,Nc1c(C(=O)NCc2ccco2)nnn1CC(=O)Nc1ccccc1,inconclusive: -62.9%

row,SMILES,"activity change (PNC), negative = inhibition"
1,COc1ccccc1-n1c(-c2cn(C)nc2C)n[nH]c1=S,inconclusive: -41.3%
2,CCCCCNC(=O)c1c[nH]c2ccc(S(=O)(=O)N3CCC4(CC3)OCCO4)cc2c1=O,active: -113%
3,O=C(CN1C(=O)c2cccc3cccc1c23)NCc1ccc2c(c1)OCO2,inconclusive: -37.1%
4,COc1ccccc1NCC(=O)N/N=C/c1cccnc1,inconclusive: -40.6%
5,C/C(=N\Nc1ccc(Cl)c(Cl)c1)c1ccc(-n2ccnc2)cc1,inconclusive: -30.1%
6,COc1cccc(CN(Cc2ccco2)S(=O)(=O)c2ccc(S(=O)(=O)NCc3ccccc3)cc2)c1OC,inconclusive: -36.1%
7,CC(=O)Nc1ccc(/C=N/NC(=O)c2cc3ccccc3nc2C)cc1,inconclusive: -40.6%
8,Cc1cc2oc(C(=O)Nc3ccc(S(=O)(=O)N4CCCC(C)C4)cc3)cc(=O)c2cc1Cl (centres undefined),inconclusive: -32.9%
9,O=C(NCC1CCCCC1)C1CCN(C(=O)NC2CCCCC2)CC1,inconclusive: -32%
10,CCCOC(=S)Nc1ccccc1,inactive: -0.633%
11,O=c1[nH]c2ccccc2nc1NCCN1CCOCC1,inconclusive: -71%
12,Cc1cc(N2CCCC2=O)cc(C)c1S(=O)(=O)NCCOc1ccccc1,inconclusive: -74.2%
13,Cc1ccsc1/C=C1\SC(N)=NC1=O,inactive: 56.7%
14,COc1ccc(C2CC(=O)C3=C(C2)NC(C)=C(C(=O)Nc2ccccc2C)C3c2coc3ccc(C)cc3c2=O)cc1OC (centres undefined),inconclusive: -40%
15,CC1CCCN(Cc2c(O)ccc3c2O/C(=C\c2ccco2)C3=O)C1 (centres undefined),inconclusive: -68.6%
16,Cc1ccc(C(=O)C[n+]2cc(-c3ccc(C)cc3)n3c2CCCCC3)cc1,inconclusive: -30.3%
17,CCCCNC(=O)Cn1c(-c2ccc(OC)cc2)noc1=O,inconclusive: -38%
18,CN(C)S(=O)(=O)c1ccc(C(=O)Nc2ccc(CCC(=O)N3CCCC3)cc2)cc1,inconclusive: -44.4%
19,CCCCC(=O)Nc1nnc(SCC(=O)N2CCN(c3ccccc3OC)CC2)s1,inconclusive: -37.4%
20,CCC(=O)N(CCC(Cc1ccccc1)c1ccc2c(c1)OCO2)Cc1ccccc1F (centres undefined),inactive: 34.4%

# A few values from the list:
# activity change (PNC), negative = inhibition with COCCNC(=O)C(c1ccc(C)o1)N(C(=O)c1snc(C(N)=O)c1N)c1cccc(C)c1 (centres undefined) reads inconclusive: -35.9%
# activity change (PNC), negative = inhibition with N=C1CCCN1CC(=O)c1ccc(Cl)cc1 reads inconclusive: -33.5%
